At least one compound was matched to its structure with a doubt left.
Tested on: peripheral blood CD4 T-cells of patients with type 1 diabetes
Test: Differentiation of peripheral blood CD4 T-cells (Th1, Th2, Th17, Treg) after in vitro treatment, flow cytometry
Assay type: cell-based, human
Conditions: 100 μM, 24 h in vitro, lymphocytes of type 1 diabetes patients
Method: (1) 5 ml peripheral blood was extracted from patients and normal humans separately, diluted twice with PBS of pH 7.2, and then mixed with lymphocyte separation solution Lymphoprep (Axis-Shield, Norway), centrifuged at 3500 rpm for 20 min, then the lymphocytes were taken out and cultured in RPMI1640 medium (purchased from Gibco) to obtain the cultured lymphocytes. The above cultured lymphocytes were treated in vitro with DHA (docosahexaenoic acid) at a final concentration of 100 μM, EPA (eicosapentaenoic acid) at a final concentration of 100 μM, and AA (arachidonic acid) at a final concentration of 100 μM for 24 h, respectively. After treating, changes in intracellular cytokines of CD4 T-cells in the above lymphocytes were detected. (The above DHA, EPA and AA are all purchased from Sigma).
(2) labeling of intracellular cytokines of CD4 T-cells: The lymphocytes (number up to 1×10^5) from patients and normal humans in the above steps were placed to different marked tubes. Labeled fluorescent monoclonal antibodies CD3 (0.1 μg) and CD8 (0.1 μg) were added into each tube. Then 1 ml paraformaldehyde having a concentration of 4% by weight was added into each tube, mixed well and incubated at room temperature (20° C.-30° C.) for 20 min. 1 ml intraprep permeabilization reagent, i.e. 0.5% saponin, was added, incubated at room temperature (20° C.-30° C.) for 30 min, then centrifuged for 5 min at 300 g, 4° C. to obtain a supernatant and a precipitate. The supernatant was removed, and 80 μl 0.5% saponin was added to re-suspend the precipitate to obtain suspensions. The obtained suspensions were labeled respectively with IFN-γ fluorescent monoclonal antibody (0.1 μg), IL-17 fluorescent monoclonal antibody (0.1 μg), IL-4 fluorescent monoclonal antibody (0.1 μg), and Foxp3 fluorescent monoclonal antibody (0.1 μg), and incubated in dark place at 4° C. for 1 h (for the suspension labeled with Foxp3 fluorescent monoclonal antibody, incubation and rupture took 8 h). The labeled cells were washed three times with 0.5% saponin, centrifuged for 5 min at 300 g, 4° C. to obtain a supernatant and a precipitate. The supernatant was removed, and the precipitate was fixed with paraformaldehyde having a mass concentration of 1%. After 24 h, percentages of Th1, Th2, Th17 and Treg cells were analyzed with a flow cytometer Accuri-C6. The antibodies and instruments used in the above steps were all purchased from BD Bioscience.
The CON in FIG. 2 represents a control group, i.e. the lymphocytes of peripheral blood from normal humans not treated with DHA, EPA or AA. The CON in FIG. 3 represents a control group, i.e. the lymphocytes of peripheral blood from patients not treated with DHA, EPA, or AA. In FIG. 2, figures A, B, C, D, and E show percentages of Th1, Th2, Th1/Th2, Th17 and Treg cells in peripheral blood CD4 T-cells of normal subjects, respectively, and figures F, G, H, I and J show percentages of Th1, Th2, Th1/Th2, Th17 and Treg cells in peripheral blood CD4 T-cells of patients, respectively. In FIG. 3, figures A, B, C, and D show percentages of transcription factors T-bet, GATA3, RORγT, and Foxp3 in peripheral blood CD4 T-cells of patients, respectively. As shown in FIGS. 2-3, in peripheral blood CD4 T-cells of patients with type 1 diabetes treated with DHA, EPA and AA respectively, the percentages of Th1 and Th17 cells decreased, and the percentages of Th2 and Treg cells increased, and the ratio of Th1/Th2 and the ratio of T17/Treg were rebalanced.

CC/C=C\C/C=C\C/C=C\C/C=C\C/C=C\CCCC(=O)O [EPA, eicosapentaenoic acid]
ratio of T17/Treg: rebalanced | ratio of Th1/Th2: rebalanced | percentage of Th1 cells (vs untreated): decreased | percentage of Th2 cells (vs untreated): increased | percentage of Th17 cells (vs untreated): decreased | percentage of Treg cells (vs untreated): increased
